The other results are listed elsewhere or left out. Further columns of the screen follow, without active or inactive calls. Most of these compounds were active or inconclusive in the main read-out, so they are no random draw.
Test: blockers of dexamethasone-driven GR-EGFP nuclear import – imaging, high-content imaging, GR-EGFP cells, confirmation (AID 463116)
Conditions: 3617.4 GR-EGFP nuclear translocation imaging, dexamethasone-induced; measured here: cell count per field; at 20 µM
In the case of `Cc1ccc(C)c(C(=O)Cn2ncc(Cl)c(Cl)c2=O)c1`, the z-score was -1.46.
Work on `COc1cc(OC)nc(-n2ncc(Br)c(Br)c2=O)n1` yielded a z-score of -0.0916.
`CCN(CC)c1ccc(/C=C2\CCC(/C=N/NC(=O)c3ccc(=O)n(C)c3)=C2N2CCOCC2)cc1` showed a z-score of -0.0319.
`O=[N+]([O-])c1ccc(Sc2nccn2Cc2ccccc2)c([N+](=O)[O-])c1` gave a z-score of -0.66.
Molecule `COc1cc(C(Nc2ccccn2)c2ccc3ccc(C)nc3c2O)cc(OC)c1O` (configuration not stated) has a z-score of -0.509.
With `Cc1ccccc1NC(=O)C(Cl)=C(Cl)Cl` the z-score was 0.11.
Molecule `COc1cccc(/C=C/C(=O)c2cccc([N+](=O)[O-])c2)c1OC` has a z-score of 0.267.
Molecule `COC(=O)c1cc(=O)n(Cc2ccc(OC)c(OC)c2)c(=Nc2ccc(F)cc2)s1` has a z-score of 0.489.
`CC1(C)CC(=O)C2=C(C1)OC1=C(C(=O)CC(C)(C)C1)C2c1ccc(O)cc1O` showed a z-score of 1.06.
With `Nc1nc(CCl)nc(Nc2ccc3ccccc3c2)n1` the z-score was 0.228.
Work on `O=C(c1cccs1)n1nc(-c2ccccc2)nc1NCc1ccco1` yielded a z-score of 0.525.
Molecule `CS(=O)(=O)c1sc(C#N)c2c1C(=O)CC(c1ccccc1)C2` (configuration not stated) has a z-score of -0.534.
With `CCCCCCCOC(=O)C[N+](C)(C)CCOC1CC2CCC1(C)C2(C)C` (configuration not stated) the z-score was -5.44.
With `COc1ccccc1NC1=C(NC(C)=O)C(=O)c2ccccc2C1=O` the z-score was -0.48.
With `COc1ccc(-c2csc3nc(-c4cccnc4)nc(Cl)c23)cc1OC` the z-score was 0.108.
`O=C(CCl)Nc1cc(-c2ccccc2)nn1-c1ccccc1` gave a z-score of -0.158.
In the case of `CS(=O)c1nc(-c2ccc(Br)cc2)cc(-c2ccccc2)c1C#N` (configuration not stated), the z-score was -3.14.
In the case of `Cc1ccc(S(=O)(=O)NC2OC(=O)C(Cl)=C2Cl)cc1` (configuration not stated), the z-score was -0.792.
For `CCOC(=O)c1c(C)oc2c1c(C(c1cccnc1)N1CCOCC1)c(O)c1ccccc12` (configuration not stated), the z-score was 0.994.
For `O=C(CCl)N1N=C(c2ccco2)CC1c1cccs1` (configuration not stated), the z-score was 0.156.
With `O=[N+]([O-])c1c(NCCCO)cc(SCc2ccco2)c2nonc12` the z-score was 0.397.
In the case of `CCn1nc([N+](=O)[O-])c(C(C#N)c2nc3cc(C(F)(F)F)ccc3s2)c(Cl)c1=O` (configuration not stated), the z-score was -0.206.
`CCCOc1ccc(C(=O)CCN2CCN(C(=O)OCC)CC2)cc1` gave a z-score of -0.164.
`Clc1ncnc2scc(C3COc4ccccc4O3)c12` (configuration not stated) showed a z-score of 1.18.
Molecule `COc1ccc(/C=C(/C(=O)c2cccs2)N2C=CC=CC2=C(C#N)C#N)cc1` has a z-score of -1.29.
With `O=C(CN(c1cccc(C(F)(F)F)c1)S(=O)(=O)c1ccc(Cl)c([N+](=O)[O-])c1)NCc1ccccc1` the z-score was -0.216.
In the case of `CC(=O)/C=C1/C(=O)Nc2ccccc21`, the z-score was 0.192.
`CCOC(=O)C1CCN(C(=O)Nc2ccc3nc(-c4ccco4)c(-c4ccco4)nc3c2)CC1` gave a z-score of 0.554.
With `O=c1c2ccccc2nc(/C=C/c2ccc([N+](=O)[O-])o2)n1CCCO` the z-score was 0.0205.
In the case of `COC(=O)c1ccc(C(=O)OC)c(-n2c(=O)c3ccccc3c3ccccc3c2=O)c1`, the z-score was 0.125.
`Cc1nc2c(ccc3nc(NC(=O)c4ccc(S(=O)(=O)N(C)C)cc4)sc32)s1` showed a z-score of 0.876.
`Cc1ccc2nc(Nc3ccc4[nH]c(=O)[nH]c4c3)c(-n3nc(C)cc3C)nc2c1` showed a z-score of 0.359.
Molecule `COc1ccc(N2C(=O)CC(Sc3ncn[nH]3)C2=O)c(OC)c1` (configuration not stated) has a z-score of 0.251.
For `CCCc1ccc(/C=C2\C(=O)c3ccccc3C(O)=C2C(=O)OCC)cc1`, the z-score was -1.88.
Molecule `O=C(CCSc1ccccn1)c1ccccc1` has a z-score of 0.857.
For `CC(C)N(C(=O)COC(=O)c1ccccc1C(=O)c1ccc(Cl)c([N+](=O)[O-])c1)C(C)C`, the z-score was 0.0465.
For `CCCC(=O)N1CCN(c2ccc(NC(=O)c3ccc([N+](=O)[O-])o3)cc2)CC1`, the z-score was 0.105.
Molecule `CCCN1C(=O)/C(=C/C=C2\N(CC)c3ccccc3C2(C)C)SC1=S` has a z-score of 0.286.
In the case of `O=S1(=O)CC=C(CSC(=S)NC2CCS(=O)(=O)C2)C1` (configuration not stated), the z-score was -0.307.
In the case of `CN(Cc1ccc(Cl)cc1)C(=O)CCl`, the z-score was -0.356.
In the case of `Cc1cc(-c2cccs2)c2c(N)c(C(=O)c3ccc4c(c3)OCO4)sc2n1`, the z-score was 0.122.
Work on `CCOc1ccc(C(=O)C(CCC(CN(C)C)C(=O)c2ccc(OCC)cc2)CN(C)C)cc1` (configuration not stated) yielded a z-score of -3.8.
`Cc1ccc(N2C(=O)CC(Sc3ncn[nH]3)C2=O)cc1C` (configuration not stated) gave a z-score of 0.574.
In the case of `CCC1Oc2ccc(C)cc2N(CC(=O)N(Cc2cccnc2)Cc2ccc(C)o2)C1=O` (configuration not stated), the z-score was 0.331.
In the case of `CC(=O)N(CCC(c1ccco1)C(C)C)Cc1ccc(Cl)cc1` (configuration not stated), the z-score was -0.041.
With `Cn1c(-c2ccccc2)c(C(=O)CCl)c2ccccc21` the z-score was -0.434.
`CCN1C/C(=C/c2cccc([N+](=O)[O-])c2)C(=O)/C(=C/c2cccc([N+](=O)[O-])c2)C1` gave a z-score of 0.403.
In the case of `Cc1ccc(C)c2nc3sc(C(=O)N4CCCc5ccccc54)c(N)c3cc12`, the z-score was -0.226.
With `COCCCNc1c2c3c(cccc3[nH]c1=O)C(=O)c1ccccc1-2` the z-score was 0.934.
Molecule `CN1C(=O)C(O)(CC(=O)/C=C\c2ccc3c(c2)OCO3)c2ccccc21` (configuration not stated) has a z-score of -0.0746.
`NC(=O)N/N=C/c1c(Sc2nnnn2-c2ccccc2)nc2ccccn2c1=O` showed a z-score of 0.489.
Molecule `Cc1ccc(S(=O)(=O)/N=c2\ccc(Cl)cn2C(F)F)cc1` has a z-score of 0.00269.
`COCCN(CC(=O)NC1CCCCC1)C(=O)/C=C/C(=O)c1ccc(OC)cc1O` gave a z-score of 0.206.
In the case of `O=C(N/N=C/c1ccc(N2CCCCC2)o1)c1ccccc1`, the z-score was -0.409.
Molecule `CCC(C)(C)c1ccc(OCCCC[n+]2cccc(C)c2)c(C(C)(C)CC)c1` has a z-score of -6.32.
`Cc1ccc(-n2ncc(Br)c(Br)c2=O)cc1` showed a z-score of 0.194.
In the case of `O=C1C(Cl)=C(NS(=O)(=O)c2ccc([N+](=O)[O-])cc2)C(=O)c2ccccc21`, the z-score was 0.395.
Work on `O=C(Cn1sc2ccccc2c1=O)NC12CC3CC(CC(C3)C1)C2` yielded a z-score of 0.766.
For `O=C(c1ccc(F)cc1)C(CN1CCOCC1)c1ccccc1` (configuration not stated), the z-score was 0.148.
Molecule `CCc1ccc(NS(=O)(=O)c2cccs2)cc1` has a z-score of -0.425.
For `CC1=NNC(=O)/C1=C\c1cn(-c2ccccc2)nc1-c1ccccc1`, the z-score was -0.882.
For `O=C(Cn1ncc(Cl)c(Cl)c1=O)N1CCOCC1`, the z-score was 0.193.
For `CCCC(=O)N(C1CC(C)C(C#N)(C#N)C1(C#N)C#N)N(C)C` (configuration not stated), the z-score was -3.96.
For `C=C(C(=O)c1ccccc1)C(C(=C)C(=O)c1ccccc1)c1ccc(OC)cc1`, the z-score was -0.299.
For `CC1=C(CO)C(=O)OC([C@@H](C)C2CC[C@H]3C4C[C@H]5O[C@]56[C@@H](O)C=CC(=O)[C@]6(C)C4CC[C@]23C)C1` (some centres not stated), the z-score was 0.168.
`Cc1cccc(N2CCN(C(=O)Cn3sc4nc(C)cc(C)c4c3=O)CC2C)c1` (configuration not stated) showed a z-score of -0.611.
With `CN(C)CCCN(C(=O)CCOc1ccccc1)c1nc2ccc(F)cc2s1` the z-score was 0.263.
`CN1CCN(Cc2nc3ccccc3c(=O)n2Cc2nc(-c3ccc([N+](=O)[O-])cc3)cs2)CC1` showed a z-score of -3.51.
`COc1ccc(/C=C/C(=O)CC(O)(c2ccccc2)C(F)(F)F)cc1` (configuration not stated) showed a z-score of 0.57.
Work on `O=C1CC(Sc2nnc(-c3ccccc3O)o2)C(=O)N1c1ccccc1` (configuration not stated) yielded a z-score of -1.75.
`CC1=NN(c2ccccc2)C(=O)/C1=C\C=C\c1ccccc1` gave a z-score of -0.0965.
With `O=C(OCn1ncc(Br)c(Br)c1=O)c1c(F)cccc1F` the z-score was 0.332.
Molecule `Cc1ccc(S(=O)(=O)/N=C(\Sc2ccccc2)c2ccccc2)cc1` has a z-score of 0.594.
In the case of `CC(C)(c1ccccc1)c1ccc(OCC(O)CNC2CCN(Cc3ccccc3)CC2)cc1` (configuration not stated), the z-score was -5.44.
Work on `COc1ccc(NC(=O)/C(Cl)=C(/Cl)S(=O)(=O)Cc2ccc(C)cc2)cn1` yielded a z-score of -2.42.
In the case of `COc1cc(/C=C(/C(=O)c2cccs2)c2nc3ccccc3[nH]2)ccc1O`, the z-score was 0.396.
Molecule `CC1=CC(=O)C(C(C)C)=C/C1=N/OS(=O)(=O)c1ccccc1` has a z-score of -5.34.
For `CC(=O)N1c2ccccc2C(CBr)=CC1(C)C`, the z-score was 0.751.
For `CC(C)c1ccc(CN2CCN(C(=O)CCl)CC2)cc1`, the z-score was 0.331.
`Cc1ccc(S(=O)(=O)Nc2ccc3c(c2)nc2n3CCN(Cc3ccccc3)C2)cc1` gave a z-score of 0.636.
For `N#Cc1ccccc1Cn1cc(/C=C/[N+](=O)[O-])c2ccccc21`, the z-score was -0.000683.
Molecule `COC(CNC(=O)c1ccc2c3c(onc13)-c1ccccc1C2=O)OC` has a z-score of -0.834.
Work on `CCOc1cc(/C=C\[N+](=O)[O-])ccc1OCC(=O)N1CCOCC1` yielded a z-score of 0.132.
Work on `CC(=O)Nc1ccc(SC[C@H](c2ccccc2)N2CCN(CCc3ccccc3)CCC2=O)cc1` yielded a z-score of -0.166.
Molecule `CCOC(=O)C1=C(CSc2nc(-c3ccncc3)ccc2C#N)OC(N)=C(C#N)C1c1ccc(OC)cc1` (configuration not stated) has a z-score of 0.738.
Work on `CCCCCCC(=O)N(O)C1CC(=O)N(c2ccc(F)cc2)C1=O` (configuration not stated) yielded a z-score of 0.306.
Work on `N=c1n(CCN2CCCCC2)c2ccccc2n1CC(=O)c1ccc(Cl)c(Cl)c1` yielded a z-score of -4.67.
`CCOC(=O)c1ccc(N=c2sc(C(=O)OC)cc(=O)n2Cc2ccco2)cc1` showed a z-score of 0.192.
Work on `O=C(/C=C/c1cccs1)c1cc(Cl)ccc1OC(=O)N1CCOCC1` yielded a z-score of 0.143.
Work on `O=C(/C=C/c1ccc(N2CCCCC2)c([N+](=O)[O-])c1)c1ccc(O)cc1` yielded a z-score of 0.82.
Molecule `Cc1cc2c(cc1C)NC(CC(=O)NCc1ccccc1)C(=O)N2` (configuration not stated) has a z-score of -0.0446.
`CCC(=O)Nc1cccc(C(=O)/C=C/c2ccc(F)cc2)c1` showed a z-score of -0.912.
Molecule `NC(=O)c1ccc(NC(=O)CSC2=Nc3ccccc3C3CC=NN23)cc1` (configuration not stated) has a z-score of 0.689.
In the case of `CCC(=O)Nc1ccc(/C=C(\C(C)=O)C(=O)c2ccccc2)cc1`, the z-score was -0.0871.
`COc1ccc(/C=C/C(=O)c2cc(Br)ccc2OC(=O)c2ccco2)cc1OC` showed a z-score of 0.327.
For `CCc1cccc2cc3c(N)c(C(=O)Nc4ccc(S(=O)(=O)N5CCCC5)cc4)sc3nc12`, the z-score was 0.196.
In the case of `CCCN(CCC)S(=O)(=O)c1ccc(Cl)c([N+](=O)[O-])c1`, the z-score was -0.0346.
Molecule `COc1ccc(C2C(C#N)=C(N)Oc3c2sc2nc(C)cc(C)c32)cc1` (configuration not stated) has a z-score of -0.0627.
In the case of `Cc1ccnc(N/C=C(\C#N)c2nc(-c3cccc(Br)c3)cs2)c1`, the z-score was 0.529.
For `Cc1cc(C)n(-c2nc(NCCN(C)C)c3c4c(sc3n2)CCCC4)n1`, the z-score was -6.37.
Molecule `CS(=O)(=O)c1cc([N+](=O)[O-])c(Sc2nc3ccccc3[nH]2)c([N+](=O)[O-])c1` has a z-score of 0.408.
`O=C(/C=C/c1cccc([N+](=O)[O-])c1)n1cnc2ccccc21` showed a z-score of 0.319.
